# About 210 (0.4%) of roughly 52,000 sequences were called active.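 How the source made its calls: active means gene whose silencing raises cell survival under the drug, median off-target-corrected z-score across its silencing RNAs 2 or more; inactive means the rest.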 Some of the results follow.
# Assay: Resistance to Poly (ADP-Ribose) Polymerase inhibitor: Gene Identification via Genome-wide siRNA Screen
# Settings: mouse BRCA2 R2336H ES cells, olaparib, CellTiter-Glo viability; hits give high values
# In short: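 Genome-wide siRNA screen (3 siRNAs/gene, 20 nM) in mouse ES cells carrying hypomorphic BRCA2 R2336H; olaparib 500 nM added 48 h post-transfection, CellTiter-Glo viability 72 h later. Normalized to plate-median negative control; MAD z-scores, gene median, seed-adjusted.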
row,Sequence,z-score
1,CGACACCAGUCUCAAUGAATT against Olfr368,inactive: 0.0364
2,GGAGCCUCUAGGAAACAAATT against Slc28a3,inactive: 0.575
3,GGCUACAUUUCUGUUCUGATT against Hist1h2be,inactive: 0.236
4,GCCACUUAGAAAACCGUGUTT against Cox7a1,inactive: -1.5
5,GCCCAAUAAAAUUGAAGGGTT against 4930479M11Rik,inactive: 0.532
6,GGAUUCUGGGCUGAAUGGGTT against Pcdh18,inactive: 0.583
7,CCUCAAGUCUGUGAAGAAATT against Tnni1,inactive: -1.63
8,GCUAGAAGCCUGACAUUUUTT against Tbca,inactive: -1.85
9,GAUCAUCACAGAGGUCCAGTT against Fabp6,inactive: 0.231
10,GGCUGUAGUUGGCUAACACTT against Slc25a28,inactive: -1.74
11,GCUACGGACCAUGUUCAAGTT against C130036J11,inactive: -1.32
12,GGACCUCAUCUAUGCAUGUTT against Olfr1394,inactive: 0.236
13,GGUCAUUCAGCUGGAAGAUTT against Zfp143,inactive: 1.72
14,CACGGUAUAGCAGCUAUUATT against Mbtps2,inactive: -1.65
15,GCUGUUCCACAUUGAAGUGTT against Pcdh18,inactive: 0.115
16,GCACAGGCUUAUGUUCCACTT against V1rd20,inactive: -1.89
17,GGAGUCUAAACUGACAAACTT against 1700088E04Rik,inactive: -0.00276
18,GGAUGAUGCCGAUUACUUCTT against Vpreb3,inactive: -0.00674
19,CCCUGGGUGUACAAGUCCUTT against 4933406J04Rik,inactive: 0.573
20,CCGACAGUCUUGAUAUUAATT against Cbx5,inactive: 0.988
21,GGAUGUCAAACUCGCCCUGTT against Olfr61,inactive: 0.307
22,GGACUAACAACUCUGGUCUTT against Mea1,inactive: -2.46
23,GGACAUCCAGACUCUGAGATT against 2310004L02Rik,inactive: 0.232
24,GGUCUGUGGACUGAACUUATT against Bcl2l11,inactive: 0.73
25,CCUUUUUCUGGAUUGGAAUTT against Klrd1,active: 1.78
26,GGAAGAGAGAGACAAGGAUTT against Dap,inactive: -1.91
27,GCAUAGUGAACACAAACGGTT against Rgs14,inactive: 1.17
28,GGAGGUUGCUACAUGGUUATT against 6530401C20Rik,inactive: 0.821
29,GGAGAAAGGAUUGUGUUUGTT against Mgl1,inactive: 1.01

# A second format for some results above.
row | Sequence | z-score
8 | GCUAGAAGCCUGACAUUUUTT against Tbca | inactive: -1.85
9 | GAUCAUCACAGAGGUCCAGTT against Fabp6 | inactive: 0.231

# Reference: PubChem BioAssay AID1347423 (Functional Genomics Laboratory (NCATS/FGL), 2020)
